In article PMC9157728, “Albumin Binder–Conjugated Fibroblast Activation Protein Inhibitor Radiopharmaceuticals for Cancer Therapy” (Journal of Nuclear Medicine, 2022):

System: pancreatic cancer PDX tumors
Test: Static PET imaging in pancreatic cancer PDX-bearing mice
Assay type: in vivo
Experimental: All animal care and experimental procedures were performed by following the animal protocols (CCME-LiuZB-2) approved by the ethics committee of Peking University. The mice were from the Beijing Vital River Laboratory Animal Technology Co., Ltd. For cell-line–derived xenograft models, 5 × 10^6 HT-1080-FAP or HT-1080 cells were subcutaneously inoculated into the right shoulder of 6-wk-old female nu/nu-mice. To establish the patient-derived xenograft (PDX) model, tumor specimens were obtained from patients who underwent presurgical ^68Ga-FAPI-04 PET/CT imaging to confirm that the tumor was FAP-positive. After surgical resection, the tumor specimens were immediately placed in ready-to-use fresh tissue preservation solution (TM2701-100) and transported under refrigerated conditions within 2 h. The research protocol was approved by the Institutional Ethics Committee of Peking Union Medical College Hospital (JS-2628). Six-week-old female nonobese diabetic/severe combined immunodeficiency (NOD/SCID) mice were used to establish the PDX models. […] Engraftment efficiency was determined by ^68Ga-FAPI-04 PET/CT imaging (Supplemental Fig. 21A). […]

SMILES | tumor visibility on PET at 2 h after injection
N#C[C@@H]1CC(F)(F)CN1C(=O)CNC(=O)c1ccnc2ccc(OCCCN3CCN(C(=O)[C@H](CCCCNC(=O)CN4CCN(CC(=O)[O-])CCN(CC(=O)[O-])CCN(CC(=O)[O-])CC4)NC(=O)CCCC(=O)NC(CCCCNC(=O)CCCc4ccc(I)cc4)C(=O)O)CC3)cc12.[86Y+3] (some centres unmarked) [^86Y-TEFAPI-06] | completely visible
Cc1cc(-c2ccc(NC(=O)CCCC(=O)N[C@@H](CCCCNC(=O)CN3CCN(CC(=O)[O-])CCN(CC(=O)[O-])CCN(CC(=O)[O-])CC3)C(=O)N3CCN(CCCOc4ccc5nccc(C(=O)NCC(=O)N6CC(F)(F)C[C@H]6C#N)c5c4)CC3)c(C)c2)ccc1N=Nc1ccc2c(S(=O)(=O)O)cc(S(=O)(=O)O)c(N)c2c1O.[86Y+3] [^86Y-TEFAPI-07] | completely visible
